Results: PMC3960220, “1,2-β-Oligoglucan Phosphorylase from Listeria innocua” (PLoS ONE, 2014)
These are yes or no findings as the source states them, for the method shown. Sequences can lack the tags named with a protein.

Target: recombinant Lin1839 protein (1,2-β-oligoglucan phosphorylase) from Listeria innocua (Listeria innocua Clip 11262) (UniProt Q92AT0)
Test: SEC; Superdex 200 (Hiload 16/60), 50 mM MOPS-NaOH (pH 7.0) containing 150 mM NaCl; 1 ml of 2.0 mg/ml Lin1839r loaded; calibrated with standard proteins (44-669 kDa); both purified

- binding: no binding (tested: 2.0 mg/ml)
B1: recombinant Lin1839 protein (1,2-β-oligoglucan phosphorylase) from Listeria innocua (enzyme, UniProt Q92AT0 1-1086)
chain: MTMLKEIKKADLSAAFYPSGELAWLKLKDIMLNQVIQNPLENRLSQIYVRAHVGDKIEIYPLLSRDAEVGFNENGVEYRGVVGPFRYSVQMHFHTRGWFYDVTVDGDLEFDLVYLQDLGLAEQAAVRTNEAYMSQYIDYHVTEGATGFTVQARQNQPQNERFPAVQIGALTKIVGYATDGFDIYGTNYKLTSELANLKEKSLPSRVYQYEFAQISLQTELFTNHGETIFYGYATENQPKASGAPFENLAELKSNISEQPYQPSTKAILNKHIGTPITGETISDSWLQENFPDRIQEEQQNGALLSFFTPNYAHVVMREKEAELERPHGSILLDKVDVLNPEATLSATTYMYGAFLSQLVAGNTNMNKWNSHARNPLNILQTSGLRIYIELDSELRLLGVPSVWETSTNYSTWYYQWNGDLITVQTTLTADSKEAFVTVHSEKGHSYKLVLTNQVTMGTNEYDTTVKKEIKDGIVTYFPAEDSPILETYPALQFRVDGTYNELTDERYFAKDYVGTAGLDVFVFEPSDKATFHVQAKLSDEFSKPTEDLEANNKVIRASYDELTAQFHLNHQSTTAEKLNLTVYWYAHQMLVHYASPHGLEQYSGAAWGTRDVSQGPFEFFLATGNKAVLRKLVLTIFSHQYQDTGDWPQWFMFDKYTSIQQEESHGDVIVWPLKIIGDYLEMSGDAGILEEAIPFVDRESKTFTKEQGTLLEHIELAVKTIEARFMKGTALSNYGDGDWDDTLQPANAQLKKNMVSSWTVALTYQTFKRLAAFLPVGEKYETLAKNVQADFAKYMTNDTDVIPGFLYLEEGKAPVWMIHPEDKETNIKYRLIPLTRSVISELVDKKQASRNFEIIGEHLLHPDGVRLMSEPAHYAGGVSTHFKRAEQAANFGREVGLQYVHAHIRYIEALAKIGDKSAWHMLDVINPINIKEVVPNAALRQSNTYFSSSDAAFLDRYQAQNEFGRVKEGSIPVKGGWRIYSSGPGIYLHQLISSVLGIRQTEDALIFDPILPEELDGLECHIELDNYPLDLTFESADEGSIVVNGEKQPVENGANLYRTGALILPKKNLTTKCSQITIKFQKNNRL
